Source: paper PMC4297300, “Different binding motifs of the celiac disease-associated HLA molecules DQ2.5, DQ2.2, and DQ7.5 revealed by relative quantitative proteomics of endogenous peptide repertoires” (Immunogenetics, 2014)

System: HLA-DQ7.5 (DQA1*05, DQB1*03:01)
Experiment: Elution of endogenous peptides from affinity-purified HLA-DQ7.5, relative quantitative LC-MS/MS
Parameters: species or system human
Conditions: peptides acid-eluted from DQ7.5 purified with anti-DQ SPV-L3 from B-LCLs 9037 SWEIG, 9064 AMALA, 9089 BOB; MaxQuant ion peak volume divided by sum of all identified peptides per sample; twenty most abundant

Sequence	Normalized ion peak volume (%)
NPGGYVAYSKAATVTG [endogenous transferrin receptor peptide eluted from DQ7.5]	1.5%
TPLLMQALPMGALPQGP [endogenous CD74 peptide eluted from DQ7.5]	1.5%
NPGGYVAYSKAATVTGK [endogenous transferrin receptor peptide eluted from DQ7.5]	1.3%
ASFEAQGALANIAVDKA [endogenous MHC class II DRA peptide eluted from DQ7.5]	1.7%
TPLLMQALPMGALPQGPM [endogenous CD74 peptide eluted from DQ7.5]	1.4%
IPELNKVARAAAEVAG [endogenous transferrin receptor peptide eluted from DQ7.5]	0.6%
IPELNKVARAAAEVAGQF [endogenous transferrin receptor peptide eluted from DQ7.5]	1.3%
NPGGYVAYSKAATVTGKL [endogenous transferrin receptor peptide eluted from DQ7.5]	1.7%
ASFEAQGALANIAVDK [endogenous MHC class II DRA peptide eluted from DQ7.5]	1.1%
IEKVEHSDLSFSKDWS [endogenous β2-microglobulin peptide eluted from DQ7.5]	0.7%
LPKPPKPVSKMRMATPLLMQALP [endogenous CD74 (CLIP) peptide eluted from DQ2.5, DQ2.2 and DQ7.5]	1.1%
ATPLLMQALPMGALPQGPM [endogenous CD74 peptide eluted from DQ7.5]	0.7%
LMQALPMGALPQGP [endogenous CD74 peptide eluted from DQ7.5]	0.6%
VDNALQSGNSQESVTEQ [endogenous Ig kappa chain C region peptide eluted from DQ7.5]	0.8%
IEKVEHSDLSFSKD [endogenous β2-microglobulin peptide eluted from DQ7.5]	0.6%
VPVPQFGGGDPADIIHD [endogenous integral membrane protein 2C peptide eluted from DQ7.5]	1.4%
ATPLLMQALPMGALPQGP [endogenous CD74 peptide eluted from DQ7.5]	0.7%
VPVPQFGGGDPADIIHDF [endogenous integral membrane protein 2C peptide eluted from DQ7.5]	1.3%
TPLLMQALPMGALPQ [endogenous CD74 peptide eluted from DQ7.5]	2.5%
SFEAQGALANIAVDKA [endogenous MHC class II DRA peptide eluted from DQ7.5]	0.7%
